Numbering of substitutions follows the chain as printed. No constants are given. Whether binding was seen depends on the method and setting. Some entries that bind do so weakly or less than the wild type.
B1: clone J (Fab) (Fab, V domains shown)
VH: QVQLVQSGAEVKKPGSSVKVSCKASGPRFQDLSISWVRQAPGQGLEWMGGIIPIYGTANYAQKFQGRVTITADESTSTAYMELSSLRSEDTAVYYCVKDLTWTNLGLDIWGQGTMVTVSS
VL: EIVMTQSPSSLSASVGDTVTITCRASQGVSRWLAWYQQKPGKAPRLLIYAASSLHSGVPSRFSGSGSGTHFTLTISSLQPEDFATYFCQQSYSTPFTFGPGTKLEIK
B2: L2-Fab-21046 (Fab, V domains shown)
VH: B1 VH with P27E, R28S, Q30E, D31H, L32F, S33Q
VL: B1 VL with A50S, S52R, S53G, H55R
B3: L2-Fab-21047 (Fab, V domains shown)
VH: B1 VH with P27F, R28Q, Q30R, D31T, L32S, S33L, I51L, Y55F
VL: B1 VL with A50R, S52K, H55M
B4: L2-Fab-21155 (Fab, V domains shown)
VH: B1 VH with P27F, R28Q, Q30R, D31T, L32S, S33L, I51L, Y55F
VL: B1 VL with A50G, S53P, H55S
B5: L2-Fab-21169 (Fab, V domains shown)
VH: B1 VH with P27F, R28Q, Q30R, D31T, L32S, S33L, I51L, Y55F
VL: B1 VL with S52Q, S53G, H55S
B6: L2-Fab-21178 (Fab, V domains shown)
VH: B1 VH with P27R, R28H, Q30G, D31S, S33Q
VL: B1 VL with S52E, S53Q, H55L
B7: L2-Fab-21302 (Fab, V domains shown)
VH: B1 VH with P27E, R28S, Q30E, D31H, L32F, S33Q
VL: B1 VL with S52R, S53R
B8: L2-Fab-21328 (Fab, V domains shown)
VH: B1 VH with P27E, R28S, Q30E, D31H, L32F, S33Q
VL: B1 VL with A50G, S52R, S53V, H55P
B9: L2-Fab-21335 (Fab, V domains shown)
VH: B1 VH with P27E, R28S, Q30E, D31H, L32F, S33Q
VL: B1 VL with A50Q, S53R, H55L
B10: L2-Fab-21341 (Fab, V domains shown)
VH: B1 VH
VL: B1 VL with A50S, S52R, S53A
B11: L2-Fab-21343 (Fab, V domains shown)
VH: B1 VH
VL: B1 VL with A50N, S52R, H55F
B12: L2-Fab-21366 (Fab, V domains shown)
VH: B1 VH
VL: B1 VL with A50W, S52A, S53H, H55Q
B13: L2-Fab-21385 (Fab, V domains shown)
VH: B1 VH with P27R, R28H, Q30G, D31S, S33Q
VL: B1 VL with A50G, S52N, S53M, H55R
B14: hit 21047 (IgG) (antibody, V domains shown)
VH: B1 VH with P27F, R28Q, Q30R, D31T, L32S, S33L, I51L, Y55F
VL: B1 VL with A50R, S52K, H55M
B15: 2046 (antibody, V domains shown)
VH: B1 VH
VL: B1 VL with A50G, S52G, S53Q
B16: 275 (Fab, V domains shown)
VH: B1 VH with P27F, R28Q, Q30R, D31T, L32S, S33L, I51L, Y55F
VL: B1 VL with V29P
B17: 2108 (antibody, V domains shown)
VH: B1 VH
VL: B1 VL with A50H, S52R, S53F, H55Q
B18: 366 (antibody, V domains shown)
VH: B1 VH with P27F, R28Q, Q30R, D31T, L32S, S33L, I51L, Y55F
VL: B1 VL with V29A, R31Q, A34K
B19: IgG 3351 (CDR shuffling) (antibody, V domains shown)
VH: B1 VH with P27F, R28Q, Q30R, D31T, L32S, S33L, I51L, Y55F
VL: B1 VL with V29P, A50G, S53P, H55S
B20: IgG 3353 (CDR shuffling) (antibody, V domains shown)
VH: B1 VH with P27F, R28Q, Q30R, D31T, L32S, S33L, I51L, Y55F
VL: B1 VL with G28S, V29I, S30G, Q90E, T94N, F96Y
B21: 327 (Fab, V domains shown)
VH: B1 VH with P27F, R28Q, Q30R, D31T, L32S, S33L, I51L, Y55F
VL: B1 VL with G28Q, V29Q, R31T, W32F, A34T
B22: IgG NGS-3 (CDR shuffling) (antibody, V domains shown)
VH: B1 VH with P27F, R28Q, Q30R, D31T, L32S, S33L, I51L, Y55F
VL: B1 VL with A50S, A51V, S52A, L54S, H55L, S56H
B23: IgG NGS-5 (CDR shuffling) (antibody, V domains shown)
VH: B1 VH with P27F, R28Q, Q30R, D31T, L32S, S33L, I51L, Y55F
VL: B1 VL with A50S, S52A, L54V, H55C, S56T

Legend:
[1] = molecular target: ACVR2A mouse Fc fusion protein (mouse); assay: Activin A competitive ELISA: ACVR2A mouse Fc fusion coated, Fab titrated, then 16.7 nM Activin A added; bound Activin A detected (luminescence)
[2] = molecular target: ACVR2A mouse Fc fusion protein (mouse); assay: Activin A competitive ELISA: ACVR2A mouse Fc fusion coated, IgG titrated, then 16.7 nM Activin A added; bound Activin A detected (luminescence)

Binder | binding [1] | binding [2]
B1 | binds | –
B2 | binds | –
B3 | binds | –
B4 | binds | –
B5 | binds | –
B6 | binds | –
B7 | binds | –
B8 | binds | –
B9 | binds | –
B10 | binds | –
B11 | binds | –
B12 | binds | –
B13 | binds | –
B14 | – | binds
B15 | binds | binds
B16 | binds | –
B17 | binds | binds
B18 | binds | binds
B19 | – | binds
B20 | – | binds
B21 | binds | –
B22 | – | binds
B23 | – | binds
